No constants are given. Whether binding was seen depends on the method and setting. Some results given as binding are weak or reduced against the parent protein; the word gives no strength.

The chains behind the UniProt entries cited, without tags or fusion partners. Where a name states a change or a piece, a line headed by the entry shows the natural chain unless it says otherwise. A line that says so, or that is headed by a name, gives the form on record, which may keep a tag or linker. Residues count along the entry.
Cyno TL1A (G7PRK8, form named): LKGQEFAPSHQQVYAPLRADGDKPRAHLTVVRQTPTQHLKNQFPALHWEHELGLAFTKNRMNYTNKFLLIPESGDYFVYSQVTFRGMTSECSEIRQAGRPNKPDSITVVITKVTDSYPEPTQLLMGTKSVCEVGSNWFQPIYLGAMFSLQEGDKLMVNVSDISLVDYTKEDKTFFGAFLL
UniProt O95150, residues 72-251: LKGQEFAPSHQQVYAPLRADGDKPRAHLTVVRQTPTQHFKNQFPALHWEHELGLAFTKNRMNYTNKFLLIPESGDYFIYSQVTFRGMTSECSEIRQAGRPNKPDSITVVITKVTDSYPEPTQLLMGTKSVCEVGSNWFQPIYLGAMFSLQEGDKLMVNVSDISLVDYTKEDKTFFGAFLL

One test has as its target Cyno TL1A (cyno) (UniProt G7PRK8). Kind of test: SPR, Fab format. On the technique in general: In SPR one partner is held on a chip, and binding of the other changes the refractive index at the surface.
The target in a further test is human TL1A (human) (UniProt O95150). In words: SPR, Fab format.

B1: Antibody 86 (Fab format) (Fab, V domains shown)
VH: QVQLQESGPGLVRPSQTLSLTCTVSGFDIQDTYMHWVRQRPGRGLEWMGRIEPAGGHTKYNPSLKSRVTITRDTSKNQVSLRLSSVTAADTAVYYCASSGGMPDLWGQGSLVTVSS
VL: DIQMTQSPSSLSASVGDRVTITCRASSSVSYMYWYQQKPGKAPKLLIYGASNLASGVPSRFSGSGSGTDFTFTISSLQPEDIATYYCQQWEGNPRTFGQGTKVEIK
B1: the binding result with Cyno TL1A (cyno) and in the test with human TL1A (human) was “binds” each time.

B2: Antibody 88 (Fab format) (Fab, V domains shown)
VH: QVQLQESGPGLVRPSQTLSLTCTVSGFDLQDTYIHWVRQRPGRGLEWMGRIDPASGHVKYNPSLKSRVTITRDTSKNQVSLRLSSVTAADTAVYYCARSGGMTDYWGQGSLVTVSS
VL: DIQMTQSPSSLSASVGDRVTITCRASFSVDYMYWYQQKPGKAPKDLIYATSNLASGVPSRFSGSGSGTDFTFTISSLQPEDIATYYCQQWEGNPRSFGQGTKVEIK
Turning to B2, the binding result with Cyno TL1A (cyno) and in the test with human TL1A (human) was “binds” each time.

B3: Antibody 34 (Fab format) (Fab, V domains shown)
VH: QVQLQESGPGLVRPSQTLSLTCTVSGLDPDDTYMHWVRQRPGRGLEWMGRIEPAGGHTKYNPSLKSRVTITRDTSKNQVSLRLSSVTAADTAVYYCVISGGLPDVWGQGSLVTVSS
VL: DIQMTQSPSSLSASVGDRVTITCRASQGIYYMYWYQQKPGKAPKLLIYATSNLASGVPSRFSGSGSGTDFTFTISSLQPEDIATYYCQQWEGNPRTFGQGTKVEIK
For the molecule B3, the binding result in the test with Cyno TL1A (cyno) is recorded as “binds”.

B4: Antibody 100 (Fab format) (Fab, V domains shown)
VH: QVQLQESGPGLVRPSQTLSLTCTVSGFDITDTYMHWVRQRPGRGLEWMGRIEPAGGHTKYNPSLKSRVTITRDTSKNQVSLRLSSVTAADTAVYYCVRSGGLPDVWGQGSLVTVSS
VL: DIQMTQSPSSLSASVGDRVTITCRASQGVEYMYWYQQKPGKAPKLLIYATSNLASGVPSRFSGSGSGTDFTFTISSLQPEDIATYYCQQWEGNPRTFGQGTKVEIK
With B4, the binding result with Cyno TL1A (cyno) and with human TL1A (human) was “binds” in each case.

B5: Antibody 39 (Fab format) (Fab, V domains shown)
VH: QVQLQESGPGLVRPSQTLSLTCTVSGFDIQDTYMHWVRQRPGRGLEWMGRIEPAGGHTKYNPSLKSRVTITRDTSKNQVSLRLSSVTAADTAVYYCVRSGGLPDAWGQGSLVTVSS
VL: DIQMTQSPSSLSASVGDRVTITCRASSSVSYMYWYQQKPGKAPKLLIYATSNLASGVPSRFSGSGSGTDFTFTISSLQPEDIATYYCQQWEGNPRTFGQGTKVEIK
Consider B5, for which the binding entry with Cyno TL1A (cyno) is “binds”.

B6: Antibody 53 (Fab format) (Fab, V domains shown)
VH: QVQLQESGPGLVRPSQTLSLTCTVSGFDIQDTYMHWVRQRPGRGLEWMGRIEPASGHTKYNPSLKSRVTITRDTSKNQVSLRLSSVTAADTAVYYCARSGGMMDRWGQGSLVTVSS
VL: DIQMTQSPSSLSASVGDRVTITCRASQGVRYMYWYQQKPGKAPKLLIYGASNLASGVPSRFSGSGSGTDFTFTISSLQPEDIATYYCQQWEGNPRTFGQGTKVEIK
With B6, the binding result with Cyno TL1A (cyno) was “binds”.

B7: Antibody 45 (Fab format) (Fab, V domains shown)
VH: QVQLQESGPGLVRPSQTLSLTCTVSGFDIEDTYMHWVRQRPGRGLEWMGRIEPASGHTKYNPSLKSRVTITRDTSKNQVSLRLSSVTAADTAVYYCAISGGVPDVWGQGSLVTVSS
VL: DIQMTQSPSSLSASVGDRVTITCRASSSVSYMYWYQQKPGKAPKLLIYATSNLASGVPSRFSGSGSGTDFTFTISSLQPEDIATYYCQQWEGNPRTFGQGTKVEIK
Turning to B7, the binding entry with Cyno TL1A (cyno) was “binds”.

B8: Antibody 95 (Fab format) (Fab, V domains shown)
VH: QVQLQESGPGLVRPSQTLSLTCTVSGFDITDTYMHWVRQRPGRGLEWMGRIEPAGGHTKYNPSLKSRVTITRDTSKNQVSLRLSSVTAADTAVYYCVRSGGLPDVWGQGSLVTVSS
VL: DIQMTQSPSSLSASVGDRVTITCRASQGVMYMYWYQQKPGKAPKLLIYGASNLASGVPSRFSGSGSGTDFTFTISSLQPEDIATYYCQQWEGNPRTFGQGTKVEIK
Consider B8, for which the binding result with Cyno TL1A (cyno) and in the test with human TL1A (human) was “binds” each time.

B9: Antibody 89 (Fab format) (Fab, V domains shown)
VH: QVQLQESGPGLVRPSQTLSLTCTVSGFDIQDTYMHWVRQRPGRGLEWMGRIEPASGHTKYNPSLKSRVTITRDTSKNQVSLRLSSVTAADTAVYYCAASGGMPDMWGQGSLVTVSS
VL: DIQMTQSPSSLSASVGDRVTITCRASSSVSYMYWYQQKPGKAPKLLIYGASNLASGVPSRFSGSGSGTDFTFTISSLQPEDIATYYCQQWEGNPRTFGQGTKVEIK
On to B9, for which the binding result with Cyno TL1A (cyno) and with human TL1A (human) was “binds” each time.

B10: Antibody 42 (Fab format) (Fab, V domains shown)
VH: QVQLQESGPGLVRPSQTLSLTCTVSGFDITDTYMHWVRQRPGRGLEWMGRIEPAGGHTKYNPSLKSRVTITRDTSKNQVSLRLSSVTAADTAVYYCVRSGGLPDVWGQGSLVTVSS
VL: DIQMTQSPSSLSASVGDRVTITCRASQGVGYMYWYQQKPGKAPKLLIYGASNLASGVPSRFSGSGSGTDFTFTISSLQPEDIATYYCQQWEGNPRTFGQGTKVEIK
For the molecule B10, the binding result with Cyno TL1A (cyno) is “binds”.

B11: Antibody 94 (Fab format) (Fab, V domains shown)
VH: QVQLQESGPGLVRPSQTLSLTCTVSGFDIQDTYMHWVRQRPGRGLEWMGRIDPASGHTKYNPSLKSRVTITRDTSKNQVSLRLSSVTAADTAVYYCGRSGGMMDLWGQGSLVTVSS
VL: DIQMTQSPSSLSASVGDRVTITCRASSSVSYMYWYQQKPGKAPKLLIYGASNLASGVPSRFSGSGSGTDFTFTISSLQPEDIATYYCQQWEGNPRTFGQGTKVEIK
For the molecule B11, the binding result with Cyno TL1A (cyno) and with human TL1A (human) was “binds” throughout.

B12: Antibody 51 (Fab format) (Fab, V domains shown)
VH: QVQLQESGPGLVRPSQTLSLTCTVSGFDIQDTYMHWVRQRPGRGLEWMGRIEPAGGHTKYNPSLKSRVTITRDTSKNQVSLRLSSVTAADTAVYYCVRSGGLPDAWGQGSLVTVSS
VL: DIQMTQSPSSLSASVGDRVTITCRASQGVEYMYWYQQKPGKAPKLLIYGASNLASGVPSRFSGSGSGTDFTFTISSLQPEDIATYYCQQWEGNPRTFGQGTKVEIK
As to B12, the binding result in the test with Cyno TL1A (cyno) is “binds”.

B13: Antibody 96 (Fab format) (Fab, V domains shown)
VH: QVQLQESGPGLVRPSQTLSLTCTVSGFDITDTYMHWVRQRPGRGLEWMGRIEPAGGHTKYNPSLKSRVTITRDTSKNQVSLRLSSVTAADTAVYYCVRSGGLPDVWGQGSLVTVSS
VL: DIQMTQSPSSLSASVGDRVTITCRASQGVGYMYWYQQKPGKAPKLLIYATSNLASGVPSRFSGSGSGTDFTFTISSLQPEDIATYYCQQWEGNPRTFGQGTKVEIK
In the case of B13, the binding result with Cyno TL1A (cyno) and in the test with human TL1A (human) was “binds” each time.

B14: Antibody 33 (Fab format) (Fab, V domains shown)
VH: QVQLQESGPGLVRPSQTLSLTCTVSGFDIQDTYMHWVRQRPGRGLEWMGRIEPAGGHTKYNPSLKSRVTITRDTSKNQVSLRLSSVTAADTAVYYCVRSGGLPDAWGQGSLVTVSS
VL: DIQMTQSPSSLSASVGDRVTITCRASQGVEYMYWYQQKPGKAPKLLIYATSNLASGVPSRFSGSGSGTDFTFTISSLQPEDIATYYCQQWEGNPRTFGQGTKVEIK
For B14, the binding entry in the test with Cyno TL1A (cyno) is “binds”.

B15: Antibody 41 (Fab format) (Fab, V domains shown)
VH: QVQLQESGPGLVRPSQTLSLTCTVSGFDITDTYMHWVRQRPGRGLEWMGRIEPAGGHTKYNPSLKSRVTITRDTSKNQVSLRLSSVTAADTAVYYCVRSGGLPDVWGQGSLVTVSS
VL: DIQMTQSPSSLSASVGDRVTITCRASSSVSYMYWYQQKPGKAPKLLIYSASNLASGVPSRFSGSGSGTDFTFTISSLQPEDIATYYCQQWEGNPRTFGQGTKVEIK
For B15, the binding result in the test with Cyno TL1A (cyno) is “binds”.
